In article PMC11998489:
These are yes or no findings as the source states them, for the method shown. Binding can be weak; no strength is given. For part of these data: Binding seen in cells or lysates may run through a third protein. For part of these data: Tags and fused reporters may be left off the sequences shown.

Sequences of proteins named here, by UniProt entry; tags and fusion partners are left off.
UniProt P16709: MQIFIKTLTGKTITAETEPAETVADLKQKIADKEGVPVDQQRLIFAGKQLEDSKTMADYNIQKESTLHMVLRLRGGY

What was measured:
[1] = molecular target: Vps4-HA-Nm (S. frugiperda) (UniProt G3LZX7); test: split reporter; mCherry BiFC (Nm and Cm fusions) in Sf9 cells transfected with a pair of plasmids (2 ug/well each); 36 h p.t.; epifluorescence microscopy; percentage of fluorescent cells in each field
Vps4 (S. frugiperda) = Vps4 (S. frugiperda) (UniProt G3LZX7); test: two-hybrid; Y2H screen with Vps4 or Vta1 as the bait and 14 BV envelope proteins of AcMNPV as the prey; growth on QDO (SD/-Ade/-His/-Leu/-Trp)
Ac92 (P33) (AcMNPV) = molecular target: T1, Ac92 (P33) (AcMNPV) (UniProt P41480); test: two-hybrid; Y2H with the viral proteins as the bait and Vps4 or Vta1 as the prey (extended Fig. S4)
T1 sequence: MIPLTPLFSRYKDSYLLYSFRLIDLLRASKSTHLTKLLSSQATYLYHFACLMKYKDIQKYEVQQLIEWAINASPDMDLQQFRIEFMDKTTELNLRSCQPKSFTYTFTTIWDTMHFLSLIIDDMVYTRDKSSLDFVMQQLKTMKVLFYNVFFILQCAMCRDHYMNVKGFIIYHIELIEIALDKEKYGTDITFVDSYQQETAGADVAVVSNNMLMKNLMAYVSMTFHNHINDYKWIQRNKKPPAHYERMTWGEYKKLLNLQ

Ac35 (vUbi) (AcMNPV) = Ac35 (vUbi) (AcMNPV) (UniProt P16709); test: as above
Vta1 (S. frugiperda) = test: two-hybrid; Y2H screen with Vps4 or Vta1 as the bait and 14 BV envelope proteins of AcMNPV as the prey; growth on QDO (SD/-Ade/-His/-Leu/-Trp)
[2] = molecular target: Nm-HA-Vta1 (S. frugiperda); test: split reporter; mCherry BiFC (Nm and Cm fusions) in Sf9 cells transfected with a pair of plasmids (2 ug/well each); 36 h p.t.; epifluorescence microscopy; percentage of fluorescent cells in each field

Ac35 (vUbi) (BiFC fusion) (from UniProt P16709 1-77)
binding [1]: binds weakly

Ac35 (vUbi) (from UniProt P16709 1-77)
binding (Vps4 (S. frugiperda)): binds

Vta1 (S. frugiperda)
binding (Ac92 (P33) (AcMNPV)): binds

Vps4 (from UniProt G3LZX7) (enzyme)
binding (Ac35 (vUbi) (AcMNPV)): binds

B1: Ac92 (P33) (protein, UniProt P41480 1-259)
chain: MIPLTPLFSRYKDSYLLYSFRLIDLLRASKSTHLTKLLSSQATYLYHFACLMKYKDIQKYEVQQLIEWAINASPDMDLQQFRIEFMDKTTELNLRSCQPKSFTYTFTTIWDTMHFLSLIIDDMVYTRDKSSLDFVMQQLKTMKVLFYNVFFILQCAMCRDHYMNVKGFIIYHIELIEIALDKEKYGTDITFVDSYQQETAGADVAVVSNNMLMKNLMAYVSMTFHNHINDYKWIQRNKKPPAHYERMTWGEYKKLLNLQ
binding (Vta1 (S. frugiperda)): binds

B2: Ac92 (P33) (BiFC fusion) (protein, UniProt P41480 1-259)
chain: MIPLTPLFSRYKDSYLLYSFRLIDLLRASKSTHLTKLLSSQATYLYHFACLMKYKDIQKYEVQQLIEWAINASPDMDLQQFRIEFMDKTTELNLRSCQPKSFTYTFTTIWDTMHFLSLIIDDMVYTRDKSSLDFVMQQLKTMKVLFYNVFFILQCAMCRDHYMNVKGFIIYHIELIEIALDKEKYGTDITFVDSYQQETAGADVAVVSNNMLMKNLMAYVSMTFHNHINDYKWIQRNKKPPAHYERMTWGEYKKLLNLQ
binding [2]: binds weakly
